# Paper PMC4735695
# Sequences of proteins named here, by UniProt entry; tags and fusion partners are left off. A change or cut given only in a name is not applied to a line headed by its entry.
# UniProt Q6XZF7, whole entry: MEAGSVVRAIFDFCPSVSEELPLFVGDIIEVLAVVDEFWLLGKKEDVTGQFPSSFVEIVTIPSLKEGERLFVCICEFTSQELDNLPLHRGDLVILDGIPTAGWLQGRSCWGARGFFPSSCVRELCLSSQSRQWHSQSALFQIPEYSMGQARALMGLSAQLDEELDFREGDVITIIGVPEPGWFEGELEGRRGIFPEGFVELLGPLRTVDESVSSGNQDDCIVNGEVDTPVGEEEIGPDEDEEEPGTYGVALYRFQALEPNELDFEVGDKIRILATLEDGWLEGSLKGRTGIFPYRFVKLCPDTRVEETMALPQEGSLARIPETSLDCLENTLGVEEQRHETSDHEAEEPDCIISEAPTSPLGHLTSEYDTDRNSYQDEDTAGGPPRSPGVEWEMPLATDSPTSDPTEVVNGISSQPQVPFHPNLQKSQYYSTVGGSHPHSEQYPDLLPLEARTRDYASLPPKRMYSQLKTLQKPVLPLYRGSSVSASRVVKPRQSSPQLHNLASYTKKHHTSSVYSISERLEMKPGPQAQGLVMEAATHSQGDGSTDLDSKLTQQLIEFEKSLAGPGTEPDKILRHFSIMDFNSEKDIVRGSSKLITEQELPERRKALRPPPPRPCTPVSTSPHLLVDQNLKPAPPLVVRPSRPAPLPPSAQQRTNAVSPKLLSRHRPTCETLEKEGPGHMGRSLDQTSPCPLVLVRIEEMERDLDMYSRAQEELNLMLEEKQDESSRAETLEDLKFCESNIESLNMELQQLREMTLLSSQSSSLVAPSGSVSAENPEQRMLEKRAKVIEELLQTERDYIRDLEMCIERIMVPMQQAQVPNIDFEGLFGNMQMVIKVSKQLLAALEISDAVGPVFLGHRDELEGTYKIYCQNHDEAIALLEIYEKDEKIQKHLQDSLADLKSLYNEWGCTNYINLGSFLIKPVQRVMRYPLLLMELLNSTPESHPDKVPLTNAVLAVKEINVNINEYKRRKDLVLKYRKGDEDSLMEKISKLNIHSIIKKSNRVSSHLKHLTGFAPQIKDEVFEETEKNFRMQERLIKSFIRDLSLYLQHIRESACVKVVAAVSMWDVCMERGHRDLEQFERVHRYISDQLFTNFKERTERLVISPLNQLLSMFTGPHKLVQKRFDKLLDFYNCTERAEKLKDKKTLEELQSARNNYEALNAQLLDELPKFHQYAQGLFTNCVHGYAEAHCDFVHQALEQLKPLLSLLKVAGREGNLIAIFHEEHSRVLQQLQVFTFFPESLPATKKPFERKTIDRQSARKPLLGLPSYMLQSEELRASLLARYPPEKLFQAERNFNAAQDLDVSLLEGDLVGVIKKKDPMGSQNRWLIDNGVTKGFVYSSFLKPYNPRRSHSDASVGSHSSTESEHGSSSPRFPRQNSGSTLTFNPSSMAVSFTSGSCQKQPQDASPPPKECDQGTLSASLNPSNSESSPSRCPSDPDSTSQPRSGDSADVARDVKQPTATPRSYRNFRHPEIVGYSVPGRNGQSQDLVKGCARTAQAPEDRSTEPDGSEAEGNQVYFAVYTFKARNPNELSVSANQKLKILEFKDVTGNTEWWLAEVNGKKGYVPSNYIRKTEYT
# Results are given in words; binding and its absence hold for the method and conditions named. In cells and extracts the contact can be indirect. Some entries that bind do so weakly or less than the wild type.
# Target: GST-Cdc42-G15A (UniProt P60953)
# Experiment: pull-down; GST-Cdc42-G15A on beads; lysates of HEK293T cells transfected with HA-Tuba (WT or YF mutant; with or without Flag-Shp2-E76G), lysis buffer 50 mM HEPES pH 7.5, 1% Triton X-100, 150 mM NaCl, 20 mM NaF, 1 mM Na3VO4, 1 mM DTT; precleared with GST beads 10 min at 4 °C; precipitated HA-Tuba seen by western blot with HA antibody; read by the paper as GEF activity; only the target purified
substance,measurement,value
"HA-Tuba (Homo sapiens), wild type (from UniProt Q6XZF7 1-1577)",binding,binds
